System: ganglioside GM1
Assay: ITC titration with GM1:DPC 1:5 bicelles
Type: binding
Conditions: CFU-tagged derivatives, Figure S5

## CFU-WYKYW [CFU-tagged WYKYW derivative]
  n1: 0.5
  n2: 1.5

From publication PMC7029632, “Routing Nanomolar Protein Cargoes to Lipid Raft‐Mediated/Caveolar Endocytosis through a Ganglioside GM1‐Specific Recognition Tag” (Advanced Science, 2020)
